Results reported in publication PMC4793087.

B1: L. thermotolerans Scc1 peptide 121-143 (L128SeMet) (peptide)
peptide: LTNPSQYMLQDAVTEREVLLVPG
modifications: selenomethionine at 128
B2: L. thermotolerans Scc1 peptide 121-143 (Y127SeMet) (peptide)
peptide: LTNPSQMLLQDAVTEREVLLVPG
modifications: selenomethionine at 127
B3: L. thermotolerans Scc1 peptide 121-143 (peptide)
peptide: LTNPSQYLLQDAVTEREVLLVPG

The binders below were run against Lachancea thermotolerans Pds5 (construct M-35-1221-LHHHHHH) (Lachancea thermotolerans) (assay: crystal structure; co-crystals of LtPds5 with synthetic LtScc1 peptide (121-143); molecular replacement with fragments of the apo structure, 3.6 Å; two further SeMet SAD datasets with SeMet-substituted peptides; both purified).

| Binder | binding |
| --- | --- |
| B1 | binds |
| B2 | binds |
| B3 | binds |

No constants are given. Whether binding was seen depends on the method and setting. Binding calls can cover weak binding; strength is not graded here.
